Data taken from PMC12533114.
Results are given in words; binding and its absence hold for the method and conditions named. In cells and extracts the contact can be indirect. Some binding calls cover weakened binding; strength is not graded here.

Protein sequences, listed by entry. Tags and fused reporters are not part of them.
UniProt P51593: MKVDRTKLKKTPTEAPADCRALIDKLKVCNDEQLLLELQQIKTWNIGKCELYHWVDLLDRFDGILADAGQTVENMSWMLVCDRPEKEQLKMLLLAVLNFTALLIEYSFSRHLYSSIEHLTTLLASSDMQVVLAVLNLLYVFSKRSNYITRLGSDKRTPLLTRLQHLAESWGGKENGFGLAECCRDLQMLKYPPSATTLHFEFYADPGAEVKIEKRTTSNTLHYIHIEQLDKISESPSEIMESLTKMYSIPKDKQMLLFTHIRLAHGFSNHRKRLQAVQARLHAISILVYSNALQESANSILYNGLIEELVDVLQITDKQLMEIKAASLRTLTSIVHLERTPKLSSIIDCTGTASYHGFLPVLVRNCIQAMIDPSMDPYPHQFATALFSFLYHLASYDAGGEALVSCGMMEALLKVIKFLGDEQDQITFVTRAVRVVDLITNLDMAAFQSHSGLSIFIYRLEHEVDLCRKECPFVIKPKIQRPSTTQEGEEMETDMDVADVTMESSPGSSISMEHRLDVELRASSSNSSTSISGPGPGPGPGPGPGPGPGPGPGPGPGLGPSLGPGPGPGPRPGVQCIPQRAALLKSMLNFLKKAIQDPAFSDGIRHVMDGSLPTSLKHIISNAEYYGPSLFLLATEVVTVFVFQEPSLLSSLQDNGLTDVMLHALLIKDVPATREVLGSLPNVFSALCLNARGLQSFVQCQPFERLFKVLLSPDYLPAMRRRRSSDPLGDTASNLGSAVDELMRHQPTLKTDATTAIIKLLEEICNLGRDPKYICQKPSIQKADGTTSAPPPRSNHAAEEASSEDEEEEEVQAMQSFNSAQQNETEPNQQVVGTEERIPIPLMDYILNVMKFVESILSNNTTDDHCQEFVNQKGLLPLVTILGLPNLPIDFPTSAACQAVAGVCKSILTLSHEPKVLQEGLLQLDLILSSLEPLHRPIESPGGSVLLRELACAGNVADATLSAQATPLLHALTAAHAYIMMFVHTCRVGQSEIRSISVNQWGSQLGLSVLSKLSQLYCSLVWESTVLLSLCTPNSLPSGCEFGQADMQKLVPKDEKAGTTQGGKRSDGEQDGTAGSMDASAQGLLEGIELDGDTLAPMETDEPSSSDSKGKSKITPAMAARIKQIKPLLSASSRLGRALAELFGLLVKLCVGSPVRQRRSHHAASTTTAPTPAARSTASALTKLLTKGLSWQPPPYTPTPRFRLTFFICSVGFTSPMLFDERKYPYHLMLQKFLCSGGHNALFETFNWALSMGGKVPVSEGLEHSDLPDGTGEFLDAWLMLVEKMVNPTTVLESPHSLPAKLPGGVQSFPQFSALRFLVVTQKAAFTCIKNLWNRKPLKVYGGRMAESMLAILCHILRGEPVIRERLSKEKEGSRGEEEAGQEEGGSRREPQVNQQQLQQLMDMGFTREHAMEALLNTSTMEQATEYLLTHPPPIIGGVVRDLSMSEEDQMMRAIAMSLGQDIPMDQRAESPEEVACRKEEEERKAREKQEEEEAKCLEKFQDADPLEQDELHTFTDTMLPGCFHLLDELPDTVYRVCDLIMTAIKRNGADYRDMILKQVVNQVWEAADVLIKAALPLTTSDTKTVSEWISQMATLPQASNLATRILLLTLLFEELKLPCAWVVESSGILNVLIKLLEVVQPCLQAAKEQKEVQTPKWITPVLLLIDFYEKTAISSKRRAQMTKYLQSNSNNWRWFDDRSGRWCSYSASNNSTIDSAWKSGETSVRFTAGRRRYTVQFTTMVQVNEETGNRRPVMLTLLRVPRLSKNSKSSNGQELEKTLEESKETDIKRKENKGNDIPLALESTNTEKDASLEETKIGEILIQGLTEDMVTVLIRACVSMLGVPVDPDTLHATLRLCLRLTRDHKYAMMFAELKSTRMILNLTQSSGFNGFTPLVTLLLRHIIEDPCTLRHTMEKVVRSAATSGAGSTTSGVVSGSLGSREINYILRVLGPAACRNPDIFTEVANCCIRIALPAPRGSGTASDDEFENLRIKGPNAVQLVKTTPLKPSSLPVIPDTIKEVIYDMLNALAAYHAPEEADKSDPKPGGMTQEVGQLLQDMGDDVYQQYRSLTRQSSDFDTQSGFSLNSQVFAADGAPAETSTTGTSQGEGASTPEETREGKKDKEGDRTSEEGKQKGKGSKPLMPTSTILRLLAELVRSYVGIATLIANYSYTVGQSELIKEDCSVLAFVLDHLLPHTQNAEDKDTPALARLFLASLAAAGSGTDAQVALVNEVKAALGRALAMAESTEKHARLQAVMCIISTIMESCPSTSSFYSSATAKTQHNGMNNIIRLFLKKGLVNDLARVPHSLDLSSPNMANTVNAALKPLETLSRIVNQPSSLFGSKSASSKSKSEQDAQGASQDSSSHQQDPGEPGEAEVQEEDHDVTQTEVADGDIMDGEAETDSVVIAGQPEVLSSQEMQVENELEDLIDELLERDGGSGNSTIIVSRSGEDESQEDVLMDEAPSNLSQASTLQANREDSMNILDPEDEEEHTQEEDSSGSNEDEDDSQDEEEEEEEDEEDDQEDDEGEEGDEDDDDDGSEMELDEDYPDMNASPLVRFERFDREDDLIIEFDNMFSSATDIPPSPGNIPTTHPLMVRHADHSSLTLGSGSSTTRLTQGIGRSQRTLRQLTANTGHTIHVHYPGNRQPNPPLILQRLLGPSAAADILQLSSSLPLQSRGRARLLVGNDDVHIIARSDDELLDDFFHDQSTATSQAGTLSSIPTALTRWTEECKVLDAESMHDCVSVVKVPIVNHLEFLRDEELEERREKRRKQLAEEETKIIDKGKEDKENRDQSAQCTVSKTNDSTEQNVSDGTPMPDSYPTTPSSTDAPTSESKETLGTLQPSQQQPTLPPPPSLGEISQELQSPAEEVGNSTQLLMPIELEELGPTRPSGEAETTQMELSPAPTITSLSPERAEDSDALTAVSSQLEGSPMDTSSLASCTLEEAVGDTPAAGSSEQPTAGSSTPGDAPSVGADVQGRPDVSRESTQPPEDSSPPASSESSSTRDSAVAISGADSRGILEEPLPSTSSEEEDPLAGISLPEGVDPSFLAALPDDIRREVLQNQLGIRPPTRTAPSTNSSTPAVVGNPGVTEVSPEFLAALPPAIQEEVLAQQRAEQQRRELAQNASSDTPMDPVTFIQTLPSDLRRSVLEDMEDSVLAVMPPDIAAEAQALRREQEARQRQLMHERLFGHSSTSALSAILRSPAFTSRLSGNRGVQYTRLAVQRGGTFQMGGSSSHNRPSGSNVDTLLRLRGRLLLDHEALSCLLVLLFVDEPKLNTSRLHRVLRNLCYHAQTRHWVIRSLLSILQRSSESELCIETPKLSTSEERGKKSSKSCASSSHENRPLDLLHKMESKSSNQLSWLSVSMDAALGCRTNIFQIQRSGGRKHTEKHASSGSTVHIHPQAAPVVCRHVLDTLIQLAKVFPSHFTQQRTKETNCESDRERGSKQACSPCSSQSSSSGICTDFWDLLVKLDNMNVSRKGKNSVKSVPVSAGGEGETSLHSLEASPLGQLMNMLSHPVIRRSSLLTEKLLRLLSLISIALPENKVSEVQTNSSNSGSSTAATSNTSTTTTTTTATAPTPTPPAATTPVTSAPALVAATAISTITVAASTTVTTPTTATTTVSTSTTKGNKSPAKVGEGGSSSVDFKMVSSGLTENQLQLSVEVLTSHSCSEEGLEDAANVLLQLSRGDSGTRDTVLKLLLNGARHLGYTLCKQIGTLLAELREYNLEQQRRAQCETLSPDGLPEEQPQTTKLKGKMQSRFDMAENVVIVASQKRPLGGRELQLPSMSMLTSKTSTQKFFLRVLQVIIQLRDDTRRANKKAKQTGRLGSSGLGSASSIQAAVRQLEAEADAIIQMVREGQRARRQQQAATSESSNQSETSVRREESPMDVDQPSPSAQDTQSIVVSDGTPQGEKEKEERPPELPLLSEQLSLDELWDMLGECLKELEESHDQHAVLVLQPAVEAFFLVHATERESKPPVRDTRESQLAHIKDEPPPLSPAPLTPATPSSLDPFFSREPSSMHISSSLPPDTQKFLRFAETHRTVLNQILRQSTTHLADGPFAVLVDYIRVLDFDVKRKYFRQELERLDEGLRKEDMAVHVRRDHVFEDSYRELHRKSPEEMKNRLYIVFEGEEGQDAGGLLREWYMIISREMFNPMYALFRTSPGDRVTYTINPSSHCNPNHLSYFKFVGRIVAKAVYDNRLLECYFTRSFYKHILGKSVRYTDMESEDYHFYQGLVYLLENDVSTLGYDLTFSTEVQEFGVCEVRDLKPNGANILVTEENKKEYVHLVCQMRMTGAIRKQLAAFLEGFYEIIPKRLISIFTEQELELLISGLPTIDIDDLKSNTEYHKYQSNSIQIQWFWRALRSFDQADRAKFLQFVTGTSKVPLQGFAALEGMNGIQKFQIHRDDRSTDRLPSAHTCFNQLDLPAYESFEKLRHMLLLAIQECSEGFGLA

Molecular target: T1, neurofilament light chain protein (rat (endogenous in SD rats)) (UniProt P19527)
T1 sequence: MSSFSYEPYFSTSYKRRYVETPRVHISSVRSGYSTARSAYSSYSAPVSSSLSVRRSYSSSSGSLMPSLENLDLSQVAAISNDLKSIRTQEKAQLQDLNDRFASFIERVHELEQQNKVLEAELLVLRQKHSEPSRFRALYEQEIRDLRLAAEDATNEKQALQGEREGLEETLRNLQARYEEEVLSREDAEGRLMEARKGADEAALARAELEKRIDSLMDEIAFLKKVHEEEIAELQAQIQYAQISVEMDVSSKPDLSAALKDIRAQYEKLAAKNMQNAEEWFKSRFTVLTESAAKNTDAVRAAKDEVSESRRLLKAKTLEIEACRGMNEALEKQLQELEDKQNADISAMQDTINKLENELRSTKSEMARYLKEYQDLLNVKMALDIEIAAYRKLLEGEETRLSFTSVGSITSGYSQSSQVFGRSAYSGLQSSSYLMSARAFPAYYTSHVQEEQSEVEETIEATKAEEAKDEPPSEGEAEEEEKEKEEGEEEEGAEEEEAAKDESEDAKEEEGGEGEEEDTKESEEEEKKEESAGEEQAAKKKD
Test: co-IP; total protein of elderly control and high-dose atorvastatin rat groups; NFL antibody or IgG overnight at 4 °C, Protein A agarose beads; Western blot for Sirt2, Huwe1 and NFL

Molecule: HUWE1 (from UniProt P51593 1-4454) (enzyme)
- binding: binds

B1: SIRT2 (enzyme, UniProt Q5RJQ4 1-350)
chain: MDFLRNLFTQTLGLGSQKERLLDELTLEGVTRYMQSERCRRVICLVGAGISTSAGIPDFRSPSTGLYANLEKYHLPYPEAIFEISYFKKHPEPFFALAKELYPGQFKPTICHYFIRLLKEKGLLLRCYTQNIDTLERVAGLEPQDLVEAHGTFYTSHCVNTSCGKEYTMSWMKEKIFSEATPKCEKCQNVVKPDIVFFGENLPPRFFSCMQSDFSKVDLLIIMGTSLQVQPFASLISKAPLATPRLLINKEKTGQTDPFLGMMMGLGGGMDFDSKKAYRDVAWLGDCDQGCLALADLLGWKELEDLVRREHANIDAQSGSQASNPSATVSPRKSPPPAKEAARTKEKEEH
- binding: binds
